Our source for the binding values is patent US20070101447A1.

Chains of the proteins cited; added tags and fusions are not shown.
UniProt P04792: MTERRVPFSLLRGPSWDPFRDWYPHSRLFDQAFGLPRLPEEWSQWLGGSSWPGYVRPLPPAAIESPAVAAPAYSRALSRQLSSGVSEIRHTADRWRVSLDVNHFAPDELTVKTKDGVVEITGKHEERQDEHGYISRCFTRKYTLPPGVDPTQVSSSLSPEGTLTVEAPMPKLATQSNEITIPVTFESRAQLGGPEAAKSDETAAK

These are yes or no findings as the source states them, for the method shown. Binding seen in cells or lysates may run through a third protein. Some results given as binding are weak or reduced against the parent protein; the word gives no strength. Where a sequence is shown, tags or fusion partners need not be part of it.

Test [1] addresses HSP27 containing V5 and HIS6 epitope tags (human), P04792. Kind of test: co-immunoprecipitation with anti-EGFP antibody from co-transfected HEK293T cells, Western blot. The settings on record: remark: other sources report otherwise. In general terms: A western blot detects proteins with antibodies after separation by electrophoresis.
Test [2] addresses HSP27 containing V5 and HIS6 epitope tags (human) (UniProt P04792). Described as above.

B1: EGFP-tagged HSP22 wild type, Q5RAB0 1-196 (protein, not shown: large carriers)
chain: MADGQMPFSCHYPSRLRRDPFRDSPLSSRLLDDGFGMDPFPDDLTASWPDWALPRLSSAWPGTLRSGMVPRGPTATARFGVPAEGRTPPPFPGEPWKVCVNVHSFKPEELMVKTKDGYVEVSGKHEEKQQEGGIVSKNFTKKIQLPAEVDPVTVFASLSPEGLLIIEAPQVPPYSTFGESSFNNELPQDSQEVTCT
For B1, the binding result in test [1] was “binds”.

B2: EGFP-tagged HSP22 K141E mutant (protein, not shown: large carriers)
chain: MADGQMPFSCHYPSRLRRDPFRDSPLSSRLLDDGFGMDPFPDDLTASWPDWALPRLSSAWPGTLRSGMVPRGPTATARFGVPAEGRTPPPFPGEPWKVCVNVHSFKPEELMVKTKDGYVEVSGKHEEKQQEGGIVSKNFTEKIQLPAEVDPVTVFASLSPEGLLIIEAPQVPPYSTFGESSFNNELPQDSQEVTCT
For the molecule B2, in test [2], the binding result is reported as “binds”.

B3: EGFP-tagged HSP22 K141N mutant (protein, not shown: large carriers)
chain: MADGQMPFSCHYPSRLRRDPFRDSPLSSRLLDDGFGMDPFPDDLTASWPDWALPRLSSAWPGTLRSGMVPRGPTATARFGVPAEGRTPPPFPGEPWKVCVNVHSFKPEELMVKTKDGYVEVSGKHEEKQQEGGIVSKNFTNKIQLPAEVDPVTVFASLSPEGLLIIEAPQVPPYSTFGESSFNNELPQDSQEVTCT
Turning to B3, the binding result in test [2] is recorded as “binds”.
